# Literature values in PMC11070850.
# System: mucin 1
# Test: DNA nanospheres of Y1/Y2/Y3 as competing partner
# Conditions: 10 mM MOPS, 100 mM NaNO3, pH 7.6, room temperature, 60 min (aptamer + mucin 1 + DNA nanospheres); then CuSO4 50 min and calcein 2 min; commercial protein; single-stranded DNA
sequence,measurement,value
GCAGTTGATCCTTTGGATACCCTGG [mucin 1 aptamer],binding result,binds

# The exact form of at least one protein or probe is not confirmed.
